Among the data in article PMC9950448 are binding values, retold here.

Amino acid sequences for entries named in this document (tags omitted).
UniProt Q99873: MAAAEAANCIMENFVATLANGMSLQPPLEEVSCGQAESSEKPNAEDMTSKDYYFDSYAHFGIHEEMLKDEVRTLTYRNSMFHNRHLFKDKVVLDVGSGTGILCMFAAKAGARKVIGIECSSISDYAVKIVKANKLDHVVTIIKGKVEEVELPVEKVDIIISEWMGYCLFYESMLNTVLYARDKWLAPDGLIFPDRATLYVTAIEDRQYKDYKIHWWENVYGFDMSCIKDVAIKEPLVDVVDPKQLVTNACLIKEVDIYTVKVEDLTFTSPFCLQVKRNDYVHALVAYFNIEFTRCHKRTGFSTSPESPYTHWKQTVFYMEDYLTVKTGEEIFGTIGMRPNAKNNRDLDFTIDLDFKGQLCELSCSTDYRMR
UniProt O14744: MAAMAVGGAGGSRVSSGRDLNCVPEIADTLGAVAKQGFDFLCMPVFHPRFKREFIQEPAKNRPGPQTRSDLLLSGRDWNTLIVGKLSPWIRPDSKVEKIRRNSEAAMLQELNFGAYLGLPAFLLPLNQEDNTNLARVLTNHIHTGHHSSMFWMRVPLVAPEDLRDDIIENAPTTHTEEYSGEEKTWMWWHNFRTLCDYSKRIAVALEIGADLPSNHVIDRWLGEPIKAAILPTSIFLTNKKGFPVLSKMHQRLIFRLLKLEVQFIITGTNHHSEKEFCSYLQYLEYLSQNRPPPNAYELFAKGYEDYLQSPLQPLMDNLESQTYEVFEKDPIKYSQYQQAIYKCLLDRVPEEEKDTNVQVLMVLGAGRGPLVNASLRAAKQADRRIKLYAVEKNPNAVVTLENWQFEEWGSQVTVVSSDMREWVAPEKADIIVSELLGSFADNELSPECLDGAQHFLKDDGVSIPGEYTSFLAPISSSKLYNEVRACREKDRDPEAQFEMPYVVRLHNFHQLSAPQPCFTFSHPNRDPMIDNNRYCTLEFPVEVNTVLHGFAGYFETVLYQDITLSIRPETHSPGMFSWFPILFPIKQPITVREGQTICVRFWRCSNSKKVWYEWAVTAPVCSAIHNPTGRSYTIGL

Results are given in words; binding and its absence hold for the method and conditions named. Binding seen in cells or lysates may run through a third protein. Some results given as binding are weak or reduced against the parent protein; the word gives no strength. For some of these results: Where a sequence is shown, tags or fusion partners need not be part of it.

In assay [1] the target is T1, FLAG-PHGDH WT (phosphoglycerate dehydrogenase) (human) (UniProt O43175).
T1 sequence: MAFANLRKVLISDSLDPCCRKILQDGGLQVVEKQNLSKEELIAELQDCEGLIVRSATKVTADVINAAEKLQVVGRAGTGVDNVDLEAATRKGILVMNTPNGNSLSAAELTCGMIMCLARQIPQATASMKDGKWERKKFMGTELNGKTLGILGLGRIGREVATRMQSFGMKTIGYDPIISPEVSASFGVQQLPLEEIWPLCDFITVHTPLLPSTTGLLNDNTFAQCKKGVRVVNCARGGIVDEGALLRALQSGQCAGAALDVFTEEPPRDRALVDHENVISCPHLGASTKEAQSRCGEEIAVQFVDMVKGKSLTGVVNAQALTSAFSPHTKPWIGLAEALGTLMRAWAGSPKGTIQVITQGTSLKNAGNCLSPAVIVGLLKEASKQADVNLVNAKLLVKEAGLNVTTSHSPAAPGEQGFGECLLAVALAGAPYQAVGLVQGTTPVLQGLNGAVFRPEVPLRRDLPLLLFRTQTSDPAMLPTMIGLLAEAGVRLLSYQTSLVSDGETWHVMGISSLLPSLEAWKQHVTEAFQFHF
Kind of assay: co-IP; FLAG-PHGDH co-expressed with different GFP-PRMTs in HEK293T cells.

For assay [2], the target named is T1, FLAG-PHGDH WT (phosphoglycerate dehydrogenase) (human). Put plainly: co-IP; FLAG-PHGDH WT or point mutants co-expressed with HA-PRMT1 in HEK293T cells; FLAG-PHGDH immunopurified with FLAG beads, immunoblotting with HA antibody. (In western blotting, separated proteins are transferred to a membrane and probed.)
Assay [3] deals with T2, endogenous PHGDH (human (endogenous in HEK293T, Huh7, PLC/PRF/5)) (UniProt O43175).
T2 sequence: T1 sequence
Kind of assay: co-IP; reciprocal co-IP of endogenous PHGDH and PRMT1 in HEK293T, Huh7 and PLC/PRF/5 cells; IgG as negative control; NP-40 buffer (50 mM Tris-HCl pH 7.4, 150 mM NaCl, 1% NP-40, 1 mM EDTA); also with cells treated with the methylated or nonmethylated TAT peptides.

For “GFP-PRMT1 (from UniProt Q99873 1-371) (enzyme)”, the binding entry in assay [1] was “binds”. On the same count and under the same terms, next, “GFP-PRMT5 (from UniProt O14744 1-637) (enzyme)”: “no binding”. For “HA-PRMT1 (from UniProt Q99873 1-371) (enzyme)”, the binding entry in assay [2] was “binds”. With “endogenous PRMT1 (protein arginine methyltransferase 1) (from UniProt Q99873 1-371) (enzyme)”, the binding entry in assay [3] was “binds”.
